Source: PubChem BioAssay AID624297 (National Center for Advancing Translational Sciences (NCATS), 2012)
“And” between values parts separate entries of the source, which are not always exact repeats. Identical values can stand only once. About 6,200 (1.8%) of roughly 340,000 compounds were called active. The inconclusive results got no clear call from the source; some entries with a clear call stand among them for comparison. Calls follow the shape of the dose curve; as a rule, active = well fitted activation curve with a large enough effect; inconclusive = small, poorly fitted or top-dose-only effect; inactive = no such curve, though single readings can be large or run the other way. A potency beside an inconclusive call is a rough fit, not a confirmed value.

Assay: A quantitative high throughput screen for small molecules that induce DNA re-replication in SW480 colon adenocarcinoma cells. Also: nearly all actives have a fitted effect of over 55% in size. As to re-replication activation: % of control where 0% means no effect.
Conditions: Hoechst DNA content imaging, 48 h; re-replication activation: at 46.1 µM (top of the series)
Method in brief: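 SW480 cells exposed to compounds for 48 hr at 37 C, 5% CO2, then Hoechst-stained 40 min. Nuclear DNA content imaged by fluorescence scanning (405 nm excitation, 500-530 nm emission); re-replication scored as increased high-intensity nuclei.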
Potency is read from the fitted curve at half-maximal effect.

Question: With `O=P(OCC(F)(F)C(F)F)(N1CCOCC1)N1CCOCC1` as the compound, how does the “re-replication activation” value read?
Answer: Its value is inactive: -4.5%.

Question: Which “re-replication activation” value does the source give for `Clc1ccc2c(c1)C(c1ccccc1)=NCc1nncn1-2` here?
Answer: Its value is inactive: -3.71%.

Question: Which Potency does the source give for `CN(C)c1ccc(-[n+]2c(-c3ccccc3)cc(-c3ccccc3)cc2-c2ccccc2)cc1` here?
Answer: Its Potency is inconclusive: 20.6 µM [activator, single point].

Question: For `CN(C)C(=O)Oc1ccc(OCc2nc3ccccc3[nH]2)cc1`, which “re-replication activation” value is on record?
Answer: The value was inactive: 0.307%.

Question: For `CCCC(C)c1nnc(NC(=O)CCS(=O)(=O)c2ccccc2)s1` (stereo not drawn), which Potency is on record?
Answer: Its Potency is inconclusive: 29.1 µM [activator, single point].

Question: Which “re-replication activation” value does the source give for `O=C(N/N=C/c1c(O)n(-c2ccccc2)c(=S)[nH]c1=O)c1ccccc1` here?
Answer: Its value is inactive: -2.57%.

Question: For `C[S+](CC[C@H](N)C(=O)O)C[C@H]1O[C@@H](n2cnc3c(N)ncnc32)[C@H](O)[C@@H]1O` (stereo partly drawn), which Potency is on record?
Answer: The Potency was inconclusive: 1.64 µM [activator, single point].

Question: With `C[C@@H]1O[C@@H](O[C@@H]2C=C3CCC4C(CC[C@]5(C)[C@@H](c6ccc(=O)oc6)CC[C@]45O)[C@@]3(C)CC2)[C@H](O)[C@H](O)[C@H]1O` (stereo partly drawn) as the compound, how does the Potency read?
Answer: The Potency was inconclusive: 7.31 µM [activator, partial curve, poor fit].

Question: With `COC1C(O)C(C)OC(OC2CCC3(C=O)C(CCC4C3CCC3(C)C(C5=CC(=O)OC5)CCC43O)C2)C1O` (stereo not drawn) as the compound, how does the Potency read?
Answer: Its Potency is inconclusive: 2.31 µM [activator, full curve, poor fit].

Question: With `Nc1ccc([N+](=O)[O-])cc1` as the compound, how does the Potency read?
Answer: Its Potency is inconclusive: 1.46 µM [activator, single point].

Question: With `c1ccc(Nc2ccc(Nc3ccccc3)cc2)cc1` as the compound, how does the Potency read?
Answer: The Potency was inconclusive: 11.6 µM [activator, partial curve].

Question: With `COC(=O)C1=C(c2cccc(OCc3ccccc3)c2)C[C@@H]2CC[C@H]1N2C(=O)NCc1ccccc1` as the compound, how does the “re-replication activation” value read?
Answer: The value was inactive: 2.05%.

Question: For `OCC(Br)CBr` (stereo not drawn), which “re-replication activation” value is on record?
Answer: The value was inactive: -22.8%.

Question: Which Potency does the source give for `CC12CC[C@H]3[C@@H](CCC4(O)C[C@H](O)CCC34/C=N/NC(=O)c3ccccc3O)C1(O)CCC2C1=CC(=O)OC1` (stereo partly drawn) here?
Answer: Its Potency is inconclusive: 29.1 µM [activator, single point].

Question: Which Potency does the source give for `COC(=O)C1=C(c2ccc3ccccc3c2)C[C@@H]2CC[C@H]1N2C(=O)N1CCCC1` here?
Answer: The Potency was inconclusive: 29.1 µM [activator, single point].

Question: Which Potency does the source give for `COc1ccc(CN(CCc2c[nH]c3ccccc23)Cc2ccc(OC)cc2)cc1` here?
Answer: Its Potency is inconclusive: 29.1 µM [activator, single point].

Question: Which Potency does the source give for `COc1cc(OC)cc(-c2sc3ccc(OC)cc3c2-c2ccc(OCCN3CCOCC3)cc2)c1` here?
Answer: Its Potency is inconclusive: 29.1 µM [activator, partial curve, poor fit].

Question: For `COc1cc2nc(CN3CC=C(c4ccccc4)CC3)[nH]c(=O)c2cc1OC`, which Potency is on record?
Answer: The Potency was inconclusive: 13 µM [activator, partial curve, poor fit].

Question: For `CC[N+]1(C)CCCC(OC(=O)C(O)(c2ccccc2)c2ccccc2)C1` (stereo not drawn), which Potency is on record?
Answer: Its Potency is inconclusive: 0.224 µM [activator, full curve, poor fit].

Question: Which Potency does the source give for `Cc1ccccc1CN1Cc2cnnn2-c2ccccc2C1C#N` (stereo not drawn) here?
Answer: Its Potency is inconclusive: 1.46 µM [activator, partial curve, poor fit].

Question: Which “re-replication activation” value does the source give for `C#CCN1CCN(c2ccc(F)cc2)CC1` here?
Answer: The value was inactive: -0.93%.

Question: For `O=C1NC(=O)C2(CCCc3ccc(N(CCCl)CCCl)cc32)N1` (stereo not drawn), which Potency is on record?
Answer: The Potency was active: 16.4 µM.

Question: With `CC(O)(CS(=O)(=O)c1cccc(C(F)(F)F)c1)C(=O)Nc1cccc(C(F)(F)F)c1` (stereo not drawn) as the compound, how does the “re-replication activation” value read?
Answer: Its value is inactive: 1.24%.

Question: Which Potency does the source give for `CC(C)OC(=O)Cc1ccccc1` here?
Answer: The Potency was inconclusive: 0.0651 µM [activator, partial curve, poor fit].

Question: With `O=c1cccc2n1CC1CC2CN(C(c2ccccc2)c2sc3ncnn3c2O)C1` (stereo not drawn) as the compound, how does the “re-replication activation” value read?
Answer: Its value is inactive: -13.9%.

Question: With `Cc1ccc(NP(=O)(Oc2ccccc2F)Oc2ccccc2F)cc1` as the compound, how does the Potency read?
Answer: The Potency was inconclusive: 29.1 µM [activator, single point].

Question: With `COc1ccc(N=Cc2c(O)n(Cc3ccccc3)c(=S)[nH]c2=O)c(OC)c1` as the compound, how does the “re-replication activation” value read?
Answer: Its value is inactive: -3.79%.

Question: Which Potency does the source give for `Cc1ccc(N)c([N+](=O)[O-])c1` here?
Answer: The Potency was inconclusive: 0.231 µM [activator, single point].

Question: With `COC(=O)C(O)(c1ccc(NC(=S)NC(=O)c2ccc(Cl)cc2Cl)cc1)C(F)(F)F` (stereo not drawn) as the compound, how does the “re-replication activation” value read?
Answer: The value was inactive: 40.2%.

Question: Which Potency does the source give for `Cc1ccc(/C=C2\C(=O)NC(=S)N(c3ccccc3F)C2=O)s1` here?
Answer: Its Potency is inconclusive: 18.4 µM [activator, single point].

Question: Which Potency does the source give for `COC(=O)c1cn(C(=O)c2cccc3ccccc23)c2ccccc12` here?
Answer: The Potency was inconclusive: 18.4 µM [activator, single point].

Question: For `Cc1nc2ccccc2c(=O)n1-c1ccc(Cl)c(Cl)c1`, which Potency is on record?
Answer: Its Potency is inconclusive: 20.6 µM [activator, partial curve, poor fit].

Question: For `O=C(CSc1nnc(NC(=O)c2ccccc2F)s1)NCc1ccc(F)cc1`, which Potency is on record?
Answer: Its Potency is inconclusive: 32.6 µM [activator, partial curve, poor fit].

Question: For `NCCc1ccc(OCc2ccccc2)c(OCc2ccccc2)c1`, which Potency is on record?
Answer: Its Potency is inconclusive: 29.1 µM [activator, single point].

Question: For `CNC(C)C#Cc1ccc2oc3cc(C)c(C)cc3c(=O)c2c1` (stereo not drawn), which Potency is on record?
Answer: Its Potency is inconclusive: 23.1 µM [activator, single point].

Question: Which Potency does the source give for `CCOP(=S)(OCC)C(O)CCCCCn1c(=O)c(F)cn(C2CCCO2)c1=O` (stereo not drawn) here?
Answer: The Potency was inconclusive: 23.1 µM [activator, single point].

Question: With `CCN1CCN(Cc2cc(Br)cc(Br)c2O)CC1` as the compound, how does the “re-replication activation” value read?
Answer: Its value is inactive: -3.25%.

Question: Which “re-replication activation” value does the source give for `O=[N+]([O-])c1cnc[nH]1` here?
Answer: The value was inactive: -15.6%.

Question: For `CC(Cc1ccccc1Sc1ccccc1)N(C)C` (stereo not drawn), which Potency is on record?
Answer: Its Potency is inconclusive: 18.4 µM [activator, partial curve, poor fit].

Question: For `O=c1c2ccccc2nc(/C=C/c2ccc([N+](=O)[O-])o2)n1-c1ccc(O)cc1`, which Potency is on record?
Answer: Its Potency is active: 4.61 µM.

Question: For `COc1cc2c(cc1/C=C/[N+](=O)[O-])OCO2`, which Potency is on record?
Answer: Its Potency is inconclusive: 18.4 µM [activator, single point].

Question: Which Potency does the source give for `COc1ccc(Cn2c(O)c(C=NCCCn3ccnc3)c(=O)[nH]c2=O)cc1` here?
Answer: Its Potency is inconclusive: 4.11 µM [activator, full curve, poor fit].

Question: With `COc1cc2c(c(OC)c1OC)-c1ccc(OC)c(=O)cc1[C@@H](NC(C)=O)CC2` as the compound, how does the Potency read?
Answer: The Potency was active: 53.1 nM and active: 4.6 nM.
